Data from patent publication US20160348113.
At least one result comes from cells or an extract, where the contact may be indirect. For some of these results: Construct, isoform or probe ends are uncertain for at least one entry. For some of these results: A negative result means that nothing was seen under these conditions.

By UniProt entry, the sequences of proteins in these tests, tags left out.
UniProt Q96RJ3, whole entry: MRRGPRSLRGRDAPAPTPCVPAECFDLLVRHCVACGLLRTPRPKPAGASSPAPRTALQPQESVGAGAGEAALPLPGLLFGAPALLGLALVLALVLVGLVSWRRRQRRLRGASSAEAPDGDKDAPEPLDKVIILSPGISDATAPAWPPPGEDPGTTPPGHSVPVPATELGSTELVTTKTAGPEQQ

Experiments:
[1] = molecular target: BAFF-R on Jeko-1 cells (Homo sapiens) (UniProt Q96RJ3); assay: binding assay; conditions: protein on the cell surface
[2] = test system: CCRF-CEM cell surface (BAFF-R negative control cells) (Homo sapiens); assay: binding assay; conditions: protein on the cell surface
[3] = molecular target: BAFF-R on Jeko-1 cells (Homo sapiens) (UniProt Q96RJ3); assay: flow cytometry; conditions: 2'-F pyrimidines (2'-F-C, 2'-F-U); Cy3-labelled; binding and internalization in BAFF-R+ Jeko-1 cells, 37 C; protein on the cell surface; label: 5'-32P or Cy3
[4] = 2'-F pyrimidines in transcribed aptamer strand, Cy3-labelled chimera, confocal internalization in Jeko-1, label: 32P, variant of R-1 aptamer

GGGAGGACGAUGCGGGAGGCUCAACAAUGAUAGAGCCCGCAAUGUUGAUAGUUGUGCCCAGUCUGCAGACGACUCGCCCGAUUUUUUUUUCAGUCGUAUCUUUCUGCAGCUUCCGU / GGAAGCUGCAGAAAGAUACGACUGA [R-1-STAT3 27-mer SWAP chimera]
binding result [1, 4]: binds

GGGAGGACGAUGCGGGAGGCUCAACAAUGAUAGAGCCCGCAAUGUUGAUAGUUGUGCCCAGUCUGCAGACGACUCGCCCGAUUCCACAGAUGUGAAGUUCAUUUCCAA / UUGGAAAUGAACUUCACAUCUGUGGCA [R-1 D-1 chimera (CCND1 siRNA design 1)]
binding result ([2]; 2'-F pyrimidines in transcribed aptamer-sense strand, Cy3-labelled chimera, no uptake by CEM cells, label: 32P, variant of R-1 aptamer): no binding
binding result ([1]; 2'-F pyrimidines in transcribed aptamer-sense strand, Cy3-labelled chimera, confocal internalization in Jeko-1, label: 32P, variant of R-1 aptamer): binds

GGGAGGACGAUGCGGGAGGCUCAACAAUGAUAGAGCCCGCAAUGUUGAUAGUUGUGCCCAGUCUGCAGACGACUCGCCCGA [R-1 aptamer]
binding result ([2]; 2'-F pyrimidines (2'-F-C, 2'-F-U), Cy3-labelled, confocal, no uptake by CCRF-CEM control cells, label: 5'-32P or Cy3): no binding
binding result [3]: binds

GGGAGGACGAUGCGGAUAACUAUUGUGCUAGAGGGCUUAUUUAUGUGAGCCGGUUGAUAGUUGCGCAGACGACUCGCCCGA [R-14 aptamer]
binding result ([1]; 2'-F pyrimidines (2'-F-C, 2'-F-U), Cy3-labelled, confocal, internalized in Jeko-1 cells, label: 5'-32P or Cy3): binds

GGGAGGACGAUGCGGGAGGCUCAACAAUGAUAGAGCCCGCAAUGUUGAUAGUUGUGCCCAGUCUGCAGACGACUCGCCCGAUUUUUUUUGAGAACGGAAGCUGCAGAAAGAUACGA / GUAUCUUUCUGCAGCUUCCGUUCUC [R-1-STAT3 27-mer OVH chimera]
binding result [1, 4]: binds
